# PubChem BioAssay AID686938 | Drosophila RNAi Screening Center | 2013
# Screen: 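Fly genes required for calcium entry once internal stores are emptied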 (primary screen)
# System: Drosophila S2R+ cells
# Knock-down reagent: long dsRNA against Drosophila genes, about 0.25 µg dsRNA per well, roughly 10,000 cells
# Timing: 5 days of knock-down before the calcium assay
# Treatment: thapsigargin (SERCA pump blocker) to empty calcium stores; entry signal taken 4 min after adding it
# Read-out: 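Per-well fluo-4 fluorescence in two replicates, unnormalised, measured in resting cells and 4 min after store depletion by the SERCA blocker thapsigargin; ratio of the two present in few wells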
# Direction: calcium entry signal: higher = stronger calcium signal after store depletion; entry to resting ratio: higher = more calcium entry relative to resting level; resting calcium signal: higher = higher resting calcium signal
# Hit rule: 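Hit if the duplicate-averaged plate z-score for entry over resting signal is under −3; wells with weak total dye signal (Fmax z < −2) or more than 5 off-targets removed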
# Meaning of the calls: active = strongly reduced calcium entry; inactive = no strong reduction
# In all, the deposit lists about 23,000 reagents; below is a random part of those that have a named target and a result. Over the whole deposit, 75 (0.33%) got an active call. 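Raw plate signals without normalisation; calls rest on plate z-scores that were not deposited; ratio present for only 364 wells.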 Unmarked entries are inactive. The numbers tell different reagents against one gene apart. Not stated in the record: the dose of the treatment.
Target gene,reagent no.,"calcium entry signal, replicate 1 (fluorescence units)","calcium entry signal, replicate 2 (fluorescence units)",entry to resting ratio,"resting calcium signal, replicate 1 (fluorescence units)","resting calcium signal, replicate 2 (fluorescence units)"
CG7394,1,3.06e7,3.18e7,,1.67e7,1.39e7
CG10962,1,3.26e7,3.32e7,,1.58e7,1.52e7
nmd (no mitochondrial derivative),1,3.64e7,,,1.88e7,
sowi (solwind),1,4.91e7,3.99e7,,2.29e7,1.89e7
Prp31 (Pre-mRNA processing factor 31),1,2.27e7,3.11e7,,1.31e7,2.36e7
p47,1,3.68e7,,,2.07e7,
Es2,1,2.64e7,2.75e7,,1.21e7,1.26e7
Myd88,1,3.15e7,2.73e7,,1.38e7,1.38e7
CG8952,1,3.67e7,4.14e7,,1.82e7,1.84e7
CG14285,1,3.81e7,3.24e7,,4.13e7,1.40e7
JhI-21 (Juvenile hormone Inducible-21),1,4.69e7,,,2.35e7,
Lrt (Leucine-rich tendon-specific protein),1,2.72e7,3.27e7,,1.42e7,1.41e7
aay (astray),1,5.54e7,4.66e7,,3.83e7,1.81e7
Tm1 (Tropomyosin 1),1,4.47e7,4.35e7,,2.38e7,1.93e7
Tm1 (Tropomyosin 1),2,4.09e7,4.83e7,,2.22e7,2.56e7
Tm1 (Tropomyosin 1),3,3.71e7,4.81e7,,1.64e7,2.12e7
CG4702,1,2.72e7,4.20e7,,1.30e7,1.76e7
Dhc93AB (Dynein heavy chain at 93AB),1,4.21e7,4.45e7,,6.12e7,2.12e7
CG12479,1,2.94e7,2.51e7,,1.46e7,1.13e7
Syx17 (Syntaxin 17),1,4.37e7,3.56e7,,2.88e7,1.54e7
JMJD6 (Jumonji domain containing 6),1,4.60e7,2.95e7,,2.23e7,1.29e7

Next part; the last 5 above are carried over.
Target gene,reagent no.,"calcium entry signal, replicate 1 (fluorescence units)","calcium entry signal, replicate 2 (fluorescence units)",entry to resting ratio,"resting calcium signal, replicate 1 (fluorescence units)","resting calcium signal, replicate 2 (fluorescence units)"
CG4702,1,2.72e7,4.20e7,,1.30e7,1.76e7
Dhc93AB (Dynein heavy chain at 93AB),1,4.21e7,4.45e7,,6.12e7,2.12e7
CG12479,1,2.94e7,2.51e7,,1.46e7,1.13e7
Syx17 (Syntaxin 17),1,4.37e7,3.56e7,,2.88e7,1.54e7
JMJD6 (Jumonji domain containing 6),1,4.60e7,2.95e7,,2.23e7,1.29e7
BicD (Bicaudal D),1,4.41e7,,,2.20e7,
CG10026,1,6.34e7,4.45e7,,2.96e7,1.73e7
mEFTu2 (mitochondrial translation elongation factor Tu 2),1,4.37e7,,,2.34e7,
reb (rebuf),1,3.78e7,3.38e7,,2.00e7,1.51e7
Cht4 (Chitinase 4),1,3.41e7,5.31e7,,1.77e7,2.19e7
CG15370,1,2.27e7,3.80e7,,1.34e7,2.04e7
CG15370,2,4.37e7,3.70e7,,1.72e7,1.41e7
tsr (twinstar),1,2.84e7 (active),2.21e7,,2.24e7,1.72e7
GCC88 (GRIP and coiled-coil domain containing 88 kDa),1,3.24e7,2.72e7,,1.66e7,1.47e7
maca,1,1.98e7,5.36e7,,1.13e7,8.25e7
Obp56h (Odorant-binding protein 56h),1,4.60e7,4.85e7,,2.23e7,2.62e7
CG7879,1,2.95e7,2.76e7,,1.44e7,1.37e7
"SdhAL (Succinate dehydrogenase, subunit A (flavoprotein)-like)",1,5.82e7,4.42e7,,3.89e7,1.78e7
CG18493,1,3.39e7,3.98e7,,4.59e7,1.73e7
CG8492,1,2.62e7,4.99e7,,1.31e7,2.25e7
CG8492,2,4.51e7,3.07e7,,2.49e7,1.42e7
CG10950,1,4.43e7,4.43e7,,1.99e7,2.19e7
CG1792,1,3.34e7,4.55e7,2.2,1.50e7,1.90e7
CG5445,1,4.49e7,4.04e7,,2.55e7,1.74e7
CG5445,2,4.39e7,4.27e7,,2.01e7,1.86e7
csul (capsuleen),1,4.75e7,4.17e7,,2.03e7,2.02e7
CG3611,1,4.09e7,5.04e7,,2.09e7,2.44e7
CG34109,1,2.82e7,3.77e7,,1.33e7,1.66e7
CG34109,2,3.01e7,4.72e7,,1.40e7,2.16e7
CG34109,3,2.81e7,3.39e7,,1.43e7,1.69e7
CG2218,1,3.48e7,4.52e7,,1.71e7,2.22e7
Ada (Adenosine deaminase),1,4.07e7,5.22e7,,2.05e7,2.21e7
BubR1 (Bub1-related kinase),1,3.11e7 (active),3.65e7,,1.94e7,2.33e7
Vha26 (Vacuolar H[+]-ATPase 26kD subunit),1,3.46e7,3.12e7,,2.58e7,2.25e7
CG31342,1,3.45e7,4.20e7,,1.45e7,1.84e7
CG31342,2,1.99e7,2.96e7,,1.05e7,5.51e7
dlg1 (discs large 1),1,1.50e7,2.26e7,,8.08e6,1.09e7
dlg1 (discs large 1),2,1.75e7,3.33e7,,8.90e6,1.48e7
dlg1 (discs large 1),3,2.87e7,4.53e7,,1.51e7,2.22e7
dlg1 (discs large 1),4,3.03e7,2.80e7,,1.41e7,1.31e7
amd (alpha methyl dopa-resistant),1,5.94e7,2.71e7,,2.85e7,1.45e7
amd (alpha methyl dopa-resistant),2,4.97e7,5.97e7,,2.59e7,2.40e7
